System: conscious spontaneous hypertensive rats (SHR)
Test: Effect on heart rate after i.v. administration to conscious SHR
Type: in vivo
Details: i.v., 0.3, 1.0 and 3.0 mg/kg
Protocol: The compounds of this invention are also effective in reducing blood pressure. The blood pressure lowering effect of the compounds of this invention was determined in conscious spontaneous hypertensive rats (SHR; 325-425 g). The rats were anesthetized with halothane (2% in nitrous oxide and oxygen) and were implanted with femoral arterial and venous catheters. The tips of arterial and venous catheters-were positioned in the abdominal aorta below the renal arteries and lower abdominal vena cava, respectively. The catheters were routed subcutaneously to an exit point at the base of the skull and then through a small leather harness fastened around the forequarters of each animal. The animals were allowed a 3- to 4-day recovery period after surgery. On the day before an experiment, each rat was conditioned to the experimental surroundings for 6 hours. On the day of the experiment, the harness on the back of each animal was connected to a spring tether through which arterial and venous extension tubing was routed. The other end of the tubing was connected to a water tight swivel. This system permitted direct recording of blood pressure in conscious free moving animals. Mean arterial blood pressure was measured via a Statham strain gauge transducer (P23DB, Statham Instruments, Oxnard, Calif.) and recorded on a multichannel oscillograph (Beckman Model R611, Beckman Instruments, Palo Alto, Calif.). A minimum 30-minute equilibration period was observed prior to the experimental protocol during which time the animals preened and blood pressure was quite labile. Afterward, the animals appeared to sleep and pressure was stable. Following a control blood pressure measurement, rats were dosed with the compound or vehicle i.v., and pressure was monitored at various time intervals thereafter.
^1 Standard protocol recorded the blood pressure and heart rate
responses after 0.3, 1.0 and 3.0 mg/kg i.v. Dose response curves were
plotted using the % change in pressure from pretreatment control values a
15 and 30 minutes after treatment.
Corr = correlation coefficient for the linear relationship between the lo
dose(s) and % change (y) in pressure. Values of 1.0 = perfect correlation
Pos = Positive slope of dose response
HR Index = ED15 for Heart Rate divided by ED25 for Blood

| Structure (SMILES) | Heart Rate Corr. (correlation coefficient) (15 min. after treatment) | Heart Rate Corr. (correlation coefficient) (30 min. after treatment) |
| --- | --- | --- |
| CNC1CCc2cccc(Cl)c2C1 (stereo not shown) [Example 12, 2-Methylamino-8-chloro-1,2,3,4-tetrahydronaphthalene] | 0.29 | 0.81 |
| CCCN(CCC)C1CCc2cccc(CO)c2C1 (stereo not shown) [Example 21, 2-Di-n-propylamino-8-hydroxymethyl-1,2,3,4-tetrahydronaphthalene] | 0.60 | 0.51 |
| CCCN(CCC)C1CCc2cccc(Cl)c2C1 (stereo not shown) [Example 1, 2-Di-n-propylamino-8-chloro-1,2,3,4-tetrahydronaphthalene] | 0.90 | 0.97 |
| CCN(CC)C1CCc2cccc(Cl)c2C1 (stereo not shown) [Example 2, 2-Diethylamino-8-chloro-1,2,3,4-tetrahydronaphthalene] | 0.30 | 0.92 |
| CCCNC1CCc2cccc(Cl)c2C1 (stereo not shown) [Example 10, 2-n-Propylamino-8-chloro-1,2,3,4-tetrahydronaphthalene] | 0.97 | 0.97 |
| CN(C)C1CCc2cccc(Cl)c2C1 (stereo not shown) [Example 11, 2-Dimethylamino-8-chloro-1,2,3,4-tetrahydronaphthalene] | 0.98 | 0.88 |
| CCCN(CCC)C1CCc2cccc(C(=O)OC)c2C1 (stereo not shown) [Example 7, 2-Di-n-propylamino-8-methoxycarbonyl-1,2,3,4-tetrahydronaphthalene] | 0.99 | 0.99 |
| CCCN(CCC)C1CCc2cccc(C(N)=O)c2C1 (stereo not shown) [Example 16, 2-Di-n-propylamino-8-carboxamido-1,2,3,4-tetrahydronaphthalene] | 0.99 | 0.91 |

— patent publication US5389687A, “Ring-substituted 2-amino-1,2,3,4-tetra-hydronaphthalenes” (Eli Lilly and Company, priority 1991, dated 1995)
